# Experimental data as given in PMC9788671.
# Chains of the proteins cited; added tags and fusions are not shown.
# UniProt Q9NZV8: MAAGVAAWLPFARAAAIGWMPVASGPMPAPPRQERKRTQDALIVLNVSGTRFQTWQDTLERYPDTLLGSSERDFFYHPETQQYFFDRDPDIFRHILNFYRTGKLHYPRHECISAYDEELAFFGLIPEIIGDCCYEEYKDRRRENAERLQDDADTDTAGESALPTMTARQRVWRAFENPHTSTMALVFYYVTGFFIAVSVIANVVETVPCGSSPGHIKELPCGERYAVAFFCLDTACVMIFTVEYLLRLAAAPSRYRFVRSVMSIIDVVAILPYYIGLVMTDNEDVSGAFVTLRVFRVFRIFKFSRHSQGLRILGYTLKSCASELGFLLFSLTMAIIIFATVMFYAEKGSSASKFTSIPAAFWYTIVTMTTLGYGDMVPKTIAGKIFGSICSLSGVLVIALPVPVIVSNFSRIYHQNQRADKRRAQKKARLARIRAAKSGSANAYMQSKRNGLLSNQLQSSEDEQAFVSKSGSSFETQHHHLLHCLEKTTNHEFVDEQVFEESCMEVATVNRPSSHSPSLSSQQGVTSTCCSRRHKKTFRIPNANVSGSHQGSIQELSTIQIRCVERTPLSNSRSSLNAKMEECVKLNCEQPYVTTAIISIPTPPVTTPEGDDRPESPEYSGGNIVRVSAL
# These are yes or no findings as the source states them, for the method shown. Binding seen in cells or lysates may run through a third protein. These calls come from enrichment with a bait or labelling near it, and not all partners need be listed.
# Biological target: TAP-Kv4.2 (human) (UniProt Q9NZV8)
# Assay: affinity purification with mass spectrometry; TAP-Kv4.2 expressed by lentivirus in rat hippocampal neurons, harvested at DIV14; weak lysis buffer of the kit (0.1% NP-40); streptavidin resin, then calmodulin resin; gel cut into high and low molecular weight fragments; no MS of the control sample
row,binding,Binder
1,binds,"Atp2c1 (protein, UniProt Q64566 1-919) MKVARFQKIPNVENETMIPVLTSKRASELAVSEVAGLLQADLQNGLNKSEVSHRRAFHGWNEFDISEDEPLWKKYISQFKNPLIMLLLASAVISVLMRQFDDAVSITVAILIVVTVAFVQEYRSEKSLEELSKLVPPECHCVREGKLEHTLARDLVPGDTVCLSVGDRVPADLRLFEAVDLSIDESSLTGETTPCSKVTAPQPAATNGDLASRSNIAFMGTLVRCGKAKGIVIGTGENSEFGEVFKMMQAEEAPKTPLQKSMDLLGKQLSFYSFGIIGIIMLVGWLLGKDILEMFTISVSLAVAAIPEGLPIVVTVTLALGVMRMVKKRAIVKKLPIVETLGCCNVICSDKTGTLTKNEMTVTHILTSDGLHAEVTGVGYNQFGEVIVDGDVVHGFYNPAVSRIVEAGCVCNDAVIRNNTLMGKPTEGALIALAMKMGLDGLQQDYIRKAEYPFSSEQKWMAVKCVHRTQQDRPEICFMKGAYEQVIKYCTTYNSKGQTLALTQQQRDLYQQEKAQMGSAGLRVLALASGPDLGQLTLLGLVGIIDPPRTGVKEAVTTLIASGVSIKMITGDSQETAIAIASRLGLYSKTSQSVSGEEVDTMEVQHLSQIVPKVAVFYRASPRHKMKIIKSLQKNGSVVAMTGDGVNDAVALKAADIGVAMGQTGTDVCKEAADMILVDDDFQTIMSAIEEGKGIYNNIKNFVRFQLSTSIAALTLISLATLMNFPNPLNAMQILWINIIMDGPPAQSLGVEPVDKDVIRKPPRNWKDSILTKNLILKILVSSIIIVCGTLFVFWRELRDNVITPRDTTMTFTCFVFFDMFNALSSRSQTKSVFEIGLCSNKMFCYAVLGSIMGQLLVIYFPPLQKVFQTESLSILDLLFLLGLTSSVCIVSEIIKKVERSREKTQKNTTSTPSSFLEV"
2,binds,"Marcks (protein, UniProt P30009 1-309) MGAQFSKTAAKGEAAAERPGEAAVASSPSKANGQENGHVKVNGDASPAAAEPGAKEELQANGSAPAADKEEPASGGAATPAAADKDEAAAAPEPGAATADKEAAEAEPAEPGSPSAETEGASASSTSSPKAEDGAAPSPSSETPKKKKKRFSFKKSFKLSGFSFKKSKKEAGEGAEAEGATADGAKDEAAAAAGGDAAAAPGEQAGGAGAEGAEGGESREAEAAEPEQPEQPEQPAAEEPRAEEPSEAVGEKAEEPAPGATADDAPSAAGPEQEAPAATDEPAASAAPSASPEPQPECSPEAPPAPVAE"
3,binds,"Psmd1 (protein, UniProt O88761 1-953) MITSAAGIISLLDEEEPQLKEFALHKLNAVVNDFWAEISESVDKIEVLYEDEGFRSRQFAALVASKVFYHLGAFEESLNYALGAGDLFNVNDNSEYVETIIAKCIDHYTKQCVENADLPEGEKKPIDQRLEGIVNKMFQRCLDDHKYKQAIGIALETRRLDVFEKTILESNDVPGMLAYSLKLCMSLMQNKQFRNKVLRVLVKIYMNLEKPDFINVCQCLIFLDDTQAVSDILEKLVKEDNLLMAYQICFDLYESASQQFLSSVIQNLRTVGTPIASVPGSTNTGTVPGPEKDSDSMETEEKTAGAVAGKTPDASPEPKDQTLKMIKILSGEMAIELHLQFLIRNNNTDLMILKNTKDAVRNSVCHTATVIANSFMHCGTTSDQFLRDNLEWLARATNWAKFTATASLGVIHKGHEKEALQLMATYLPKDTSPGSAYQEGGGLYALGLIHANHGGDIIDYLLNQLKNASNDIVRHGGSLGLGLAAMGTARQDVYDLLKTNLYQDDAVTGEAAGLALGLVMLGSKNTQAIEDMVGYAQETQHEKILRGLAVGIALVMYGRMEEADALIESLCRDKDPILRRSGMYTVAMAYCGSGNNKAIRRLLHVAVSDVNDDVRRAAVESLGFILFRTPEQCPSVVSLLSESYNPHVRYGAAMALGVCCAGTGNKEAINLLEPMTNDPVNYVRQGALIASALIMIQQTEITCPKVNQFRQLYSKVINDKHDDVMAKFGAILAQGILDAGGHNVTISLQSRTGHTHMPSVVGVLVFTQFWFWFPLSHFLSLAYTPTCIIGLNKDLKMPKVQYKSNCKPSTFAYPAPLEVPKEKEKEKVSTAVLSITAKAKKKEKEKEKKEEEKMEVDEAEKKEEKEKKKEPEPNFQLLDNPARVMPAQLKVLSMTETCRYQPFKPLSIGGIIILKDTSEDIEELVEPVAAHGPKIEEEEQEPEPPEPFEYIDD"
